Results deposited as PubChem BioAssay AID1224826 (NIAID, 2016).

- Aim: 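Knock-downs that raise or lower Tnf reporter signal after endotoxin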 (primary screen)
- Cell system: RAW264.7 G9 macrophages from mouse bearing reporters for p65 (GFP) and the Tnf promoter (mCherry)
- Knock-down reagent: siRNA pool against mouse genes, 100 nM
- Timing: 16 h of LPS stimulation, after 2 days of siRNA transfection
- Challenge: bacterial lipopolysaccharide (Salmonella minnesota R595), 10 ng/ml
- Detection: 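Imaged Tnf reporter mCherry in nuclei, minus background, normalised per plate to the median and expressed as robust z-scores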
- Reading the numbers: Tnf reporter robust z-score: higher = stronger Tnf promoter reporter signal after LPS; Tnf reporter intensity: higher = stronger Tnf promoter reporter signal
- Call rule: 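Called active when robust z-score is at most -1.3, matching the median of the Tlr4 knock-down control, or over 3; control wells and wells with under 50 cells never active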
- Calls: active = Tnf reporter clearly lowered or raised; inactive = no clear change in Tnf reporter
In all, the deposit lists about 17,000 reagents; this is a random part of them. Of all reagents, about 1,110 (6.6%) got an active call. 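Active means lowered or raised reporter signal; replicate intensities are raw and not normalised per plate.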 A number with no mark means an inactive call.

Target gene | Tnf reporter robust z-score | fewer than 50 cells in well | Tnf reporter intensity, replicate 1 | Tnf reporter intensity, replicate 2
Polr1e | 2.4 | enough cells in well | 273 | 234
Agfg1 | -0.41 | enough cells in well | 225 | 144
Cmya5 | 1.96 | enough cells in well | 241 | 110
Optc | 1.23 | enough cells in well | 195 | 201
Rnf44 | -0.34 | enough cells in well | 103 | 124
Arhgef16 | 1.95 | enough cells in well | 281 | 278
Usp28 | 0.45 | enough cells in well | 170 | 75.9
Tubb6 | -0.36 | enough cells in well | 137 | 141
Raet1e | 2.57 | enough cells in well | 212 | 272
Bmp10 | 2.64 | enough cells in well | 235 | 272
Cenpo | 0.72 | enough cells in well | 214 | 52.7
Brap | -0.98 | enough cells in well | 72.9 | 142
Hdac11 | -0.2 | enough cells in well | 193 | 201
Gldc | -0.36 | enough cells in well | 204 | 170
Shc4 | – | fewer than 50 cells per well; well left out of calls | 148 | 120
Atp6v1e2 | -0.22 | enough cells in well | 182 | 129
5730493B19Rik | 0.58 | enough cells in well | 217 | 170
Bpi | 1.3 | enough cells in well | 220 | 235
Ppp1r7 | 0.14 | enough cells in well | 270 | 190
Sprn | 2.01 | enough cells in well | 198 | 139
Maml2 | 0.48 | enough cells in well | 214 | 162
Acaa1b | -1.43 (active) | enough cells in well | 102 | 54
Med16 | -0.17 | enough cells in well | 111 | 305
Cpap | 1.54 | enough cells in well | 255 | 223
Caskin1 | -0.22 | enough cells in well | 100 | 234
Eif2b2 | -0.23 | enough cells in well | 204 | 221
Kcna6 | 0.19 | enough cells in well | 246 | 166
Tmem19 | 0.83 | enough cells in well | 149 | 62.9
Nudcd1 | 1.51 | enough cells in well | 264 | 118
Pik3c3 | 1.13 | enough cells in well | 324 | 280
Cdo1 | -0.25 | enough cells in well | 151 | 161
Or51f23 | – | fewer than 50 cells per well; well left out of calls | 55.4 | 81.5
Casp6 | 1.05 | enough cells in well | 159 | 271
Ankrd69 | – | fewer than 50 cells per well; well left out of calls | 225 | 53.3
Ggact | 0.58 | enough cells in well | 264 | 228
Drgx | 0.08 | enough cells in well | 149 | 116
Aspscr1 | 0.79 | enough cells in well | 177 | 214
Cyct | 2.12 | enough cells in well | 371 | 245
Gxylt2 | -1.32 (active) | enough cells in well | 65.9 | 84.3
Vav1 | -0.06 | enough cells in well | 226 | 224
Ift38 | – | fewer than 50 cells per well; well left out of calls | 118 | 47.3
Phox2a | -1.71 (active) | enough cells in well | 102 | 83
Rps6kc1 | 0.5 | enough cells in well | 237 | 247
Ddx39b | -0.93 | enough cells in well | 134 | 151
Rex1bd | – | fewer than 50 cells per well; well left out of calls | 252 | 125
Slc49a3 | – | fewer than 50 cells per well; well left out of calls | 171 | 60.8
Irak1bp1 | -0.4 | enough cells in well | 186 | 101
Hprt1 | 1.02 | enough cells in well | 326 | 247
Rdh1 | -1.09 | enough cells in well | 97.2 | 64.3
Mrpl40 | -0.34 | enough cells in well | 143 | 126
Nrg1 | -0.58 | enough cells in well | 158 | 80.3
Pcdhga9 | – | fewer than 50 cells per well; well left out of calls | 107 | 91.9
Cfap298 | 3.36 (active) | enough cells in well | 403 | 208
Zbtb38 | -0.83 | enough cells in well | 100 | 136
Pafah1b3 | -0.39 | enough cells in well | 214 | 154
Gatad2b | 0.17 | enough cells in well | 149 | 177
Gria2 | -0.47 | enough cells in well | 212 | 201
Unk | 0.22 | enough cells in well | 131 | 33.9

Entries listed above called active:
Target gene | Tnf reporter robust z-score | fewer than 50 cells in well | Tnf reporter intensity, replicate 1 | Tnf reporter intensity, replicate 2
Acaa1b | -1.43 (active) | enough cells in well | 102 | 54
Gxylt2 | -1.32 (active) | enough cells in well | 65.9 | 84.3
Phox2a | -1.71 (active) | enough cells in well | 102 | 83
Cfap298 | 3.36 (active) | enough cells in well | 403 | 208
